Drawing on the supplement of paper PMC7024190, this text covers log for 75 compounds.

Structures can show the parent of a compound that is named as a salt. The list shows a part of the results. Single values are uncertain here, since repeats match poorly.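 Human embryonic kidney cells were transiently transfected with a plasmid bearing a Renilla luciferase gene under the HSV-TK promoter. This first-round screen tests roughly ten thousand compounds for ones that increase reporter output.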

The subject of the assay is HEK 293FT. As to the kind of experiment: log relative Renilla luciferase luminescence (reporter expression vs reference, reference not stated) (log (base not stated)); higher = higher recombinant reporter expression. The settings on record: 10 µM; time after transfection 48 h.
As to `CCN(CC)C(C)CN1c2ccccc2Sc2ccccc21` (stereo not given) [ethopropazine hydrochloride], the log is 0.104.

As to `CCCNC(=O)NS(=O)(=O)c1ccc(Cl)cc1` [chlorpropamide], the log is -0.0396.

Consider `CC(=O)O[C@]1(C(C)=O)CC[C@H]2[C@@H]3C=C(Cl)C4=CC(=O)CC[C@]4(C)[C@H]3CC[C@@]21C` [chlormadinone acetate], for which the log was determined as 0.0832.

With `Cc1cc(O)c(C(=O)N[C@@H](C(=O)N[C@@H]2C(=O)N3C(C(=O)O)=C(CSc4nnnn4C)CS[C@H]23)c2ccc(O)cc2)cn1` [cefpiramide], the log is -0.0526.

`CO[C@H]1/C=C/O[C@@]2(C)Oc3c(C)c(O)c4c(O)c(c5c(nc6cc(C)ccn65)c4c3C2=O)NC(=O)/C(C)=C\C=C\[C@H](C)[C@H](O)[C@@H](C)[C@@H](O)[C@@H](C)[C@H](OC(C)=O)[C@@H]1C` [rifaximin]: the log was found to be 0.0725.

As to `Clc1cccc(Cl)c1NC1=NCCN1` [clonidine hydrochloride], the log is -0.0923.

As for `C[C@]12C=CC(=O)N[C@@H]1CC[C@@H]1[C@@H]2CC[C@]2(C)[C@@H](C(=O)Nc3cc(C(F)(F)F)ccc3C(F)(F)F)CC[C@@H]12` [dutasteride], the log is -0.0102.

As for `CCCCCCCCCCCCCCCC(=O)OC[C@H](O)[C@H]1OC(=O)C(O)=C1O` [ascorbyl palmitate], the log was -0.00459.

For the compound `Nc1nc2c(ncn2COC(CO)CO)c(=O)[nH]1` [ganciclovir], the log is -0.0168.

In the case of `NCCCCCC(=O)O` [aminocaproic acid], the log is -0.0953.

As to `CC(=O)OC/C=C(\C)CC/C=C(\C)CC/C=C(\C)CC/C=C(\C)CC/C=C(\C)CC/C=C(\C)CC/C=C(\C)CC/C=C(\C)CCC=C(C)C` [solanesyl acetate], the log was 0.146.

Turning to `CN(C)C(=N)NC(=N)N` [metformin hydrochloride], the log is -0.267.

Consider `CC=CC(=O)N(CC)c1ccccc1C` [crotamiton], for which the log is -0.114.

`CC1CC2C3CCC4=CC(=O)C=CC4(C)C3(F)C(O)CC2(C)C1C(=O)CO` (stereo not given) [desoxymetasone]: the log was -0.09.

With `CNCCc1ccccn1` [betahistine hydrochloride], the log is -1.41.

Regarding `CC1=C(C)C(=O)C(C(CCCCCC(=O)O)c2ccccc2)=C(C)C1=O` (stereo not given) [seratrodast], the log turned out to be 0.00106.

For `CC(C)NCC(O)COc1ccc(CC(N)=O)cc1` (stereo not given) [atenolol], the log is -0.00605.

As for `NC(Cn1ccc(=O)c(O)c1)C(=O)O` (stereo not given) [mimosine], the log is -0.000568.

On to `CC(=O)N(CC(O)CO)c1c(I)c(C(=O)NCCO)c(I)c(C(=O)NCC(O)CO)c1I` (stereo not given) [ioxilan], for which the log stood at 0.0534.

For `CN1CCN(CC(=O)N2c3ccccc3C(=O)Nc3cccnc32)CC1` [pirenzepine hydrochloride], the log was -0.0398.

As for `CC(=O)N(CC(O)CO)c1c(I)c(C(=O)NCC(O)CO)c(I)c(C(=O)NCC(O)CO)c1I` (stereo not given) [iohexol], the log was found to be 0.0836.

On to `COC(=O)Nc1nc2cc(Sc3ccccc3)ccc2[nH]1` [fenbendazole], for which the log is -0.0952.

With `Cn1c(=O)c2c(ncn2CC2OCCO2)n(C)c1=O` [doxofylline], the log turned out to be 0.122.

On to `CC[C@H](C)[C@H](N)C(=O)O` [isoleucine (l)], for which the log stood at 0.114.

For `O=c1[nH]cnc2nc[nH]c12` [hypoxanthine], the log worked out at 0.303.

For `CCOc1nc2cccc(C(=O)O)c2n1Cc1ccc(-c2ccccc2-c2nnn[nH]2)cc1` [candesartan], the log is -0.0698.

In the case of `C[C@@](Cc1ccc(O)c(O)c1)(NN)C(=O)O` [carbidopa], the log is 0.0697.

For `Nc1ncnc2c1ncn2[C@@H]1O[C@H](CO)[C@@H](O)[C@@H]1O` [vidarabine], the log is -0.213.

As to `CCCCC(CC)COC(=O)CC(C(=O)OCC(CC)CCCC)S(=O)(=O)O` (stereo not given) [docusate sodium], the log is -1.26.

For `C[C@H]1C[C@H]2[C@@H]3CCC4=CC(=O)C=C[C@]4(C)[C@@]3(F)[C@@H](O)C[C@]2(C)[C@@]1(O)C(=O)COP(=O)(O)O` [betamethasone sodium phosphate], the log was determined as 0.114.

On to `N#Cc1ccc2c(c1)N(CCCN1CCC(O)CC1)c1ccccc1S2` [periciazine], for which the log is 0.00411.

With `COc1cc(-c2ccc(/N=N/c3ccc4c(S(=O)(=O)O)cc(S(=O)(=O)O)c(N)c4c3O)c(OC)c2)ccc1/N=N/c1ccc2c(S(=O)(=O)O)cc(S(=O)(=O)O)c(N)c2c1O` [chicago sky blue], the log came out at 0.0267.

For the compound `CCC1(c2ccccc2)C(=O)NCNC1=O` [primidone], the log was -0.00588.

As to `CN(C)CCC(c1ccc(Br)cc1)c1ccccn1` (stereo not given) [brompheniramine maleate], the log was determined as 0.272.

Consider `O=C1CC[C@@H](C(=O)N2CSC[C@H]2C(=O)O)N1` [pidotimod], for which the log is 0.00202.

On to `c1ccc(-c2ccc(C(c3ccccc3)n3ccnc3)cc2)cc1` (stereo not given) [bifonazole], for which the log is -0.032.

Regarding `Oc1c(Cl)cc(Cl)c2cccnc12` [chloroxine], the log was -1.04.

For `C[C@]12CC[C@@H]3c4ccc(O)cc4C[C@@H](CCCCCCCCC[S+]([O-])CCCC(F)(F)C(F)(F)F)[C@H]3[C@@H]1CC[C@@H]2O` (stereo not given in full) [fulvestrant], the log came to 0.0209.

For the compound `COc1cc(CNC(=O)CCCC/C=C/C(C)C)ccc1O` [capsaicin], the log is -0.176.

On to `O=C(NCCCN1CCOCC1)c1ccc(Cl)cc1` [eprobemide], for which the log stood at 0.257.

`COC(=O)c1c(OC)cc2c(c1C)Oc1c(Cl)c(O)c(Cl)c(C)c1C(=O)O2` [gangaleoidin]: the log worked out at 0.0319.

For the compound `CO/N=C(\C(=O)N[C@@H]1C(=O)N2C(C(=O)O)=C(COC(C)=O)CS[C@H]12)c1csc(N)n1` [cefotaxime sodium], the log is -0.0177.

For `C=C[C@](C)(O)CC[C@@H]1[C@@]2(C)CCCC(C)(C)[C@@H]2CC[C@@]1(C)O` [sclareol], the log stood at 0.11.

Regarding `O=C(/C=C/c1ccc(O)c(O)c1)O[C@H](Cc1ccc(O)c(O)c1)C(=O)O` [rosmarinic acid], the log is -0.0963.

Regarding `COC(=O)[C@H](Cc1ccccc1)NC(=O)[C@@H](N)CC(=O)O` [aspartame], the log is -1.6.

Consider `COc1cc(O)c2c(=O)cc(C)oc2c1CC=C(C)C` [heteropeucenin, methyl ether], for which the log was determined as 0.0752.

Turning to `OC[C@@H](O)[C@@H](O[C@@H]1O[C@H](CO)[C@@H](O)[C@H](O)[C@H]1O)[C@H](O)[C@@H](O)CO` [glucitol-4-gucopyanoside], the log was found to be 0.072.

In the case of `C[N+](C)(C)CC(O)CC(=O)[O-]` (stereo not drawn) [carnitine (dl) hydrochloride], the log is -0.118.

In the case of `CCCCOc1cc(C(=O)OCCN(CC)CC)ccc1N` [benoxinate hydrochloride], the log came out at 0.1.

Turning to `CC(=O)Nc1c(I)cc(I)c(C(=O)O)c1I` [acetriazoic acid], the log is 0.29.

For the compound `CC(=O)O[C@]1(C)CC[C@@]23C[C@H]1C(C)(C)[C@@H]2CC[C@H]3C` [cedryl acetate], the log is 0.0797.

As for `Cc1cc2cc3c(C)cc(=O)oc3c(C)c2o1` [trioxsalen], the log was determined as 0.00714.

`CC(=O)Nc1nnc(S(N)(=O)=O)s1` [acetazolamide]: the log was -0.0145.

As to `COC1=CC(=O)C(O)=C/C1=C\C=C\c1ccccc1` [obtusaquinone], the log is -1.27.

Regarding `CC(C)Oc1ccc2c(=O)c(-c3ccccc3)coc2c1` [ipriflavone], the log was -1.38.

Consider `O=C(CCCl)NCCc1ccccc1` [fenaclon], for which the log was 0.103.

As for `O=C(O)C1=C(CSc2nnnn2CS(=O)(=O)O)CS[C@@H]2[C@H](NC(=O)[C@H](O)c3ccccc3)C(=O)N12` [cefonicid sodium], the log came out at 0.113.

For `CC(C)CC(NC(=O)[C@H](C)N)C(=O)O` (mixture of isomers) [alanyl-dl-leucine], the log was -0.0711.

On to `NC[C@H](O)c1ccc(O)c(O)c1` [norepinephrine], for which the log was -0.0997.

Consider `CCN(CC)CCNC(=O)c1ccc(N)cc1` [procainamide hydrochloride], for which the log was -0.105.

For the compound `O=C(Oc1cc(O)cc2c1C[C@@H](OC(=O)c1cc(O)c(O)c(O)c1)[C@@H](c1cc(O)c(O)c(O)c1)O2)c1cc(O)c(O)c(O)c1` [epigallocatechin 3,5-digallate], the log worked out at 0.253.

On to `CCCCCCOc1ccccc1C(N)=O` [exalamide], for which the log is 0.00499.

`CC[C@H]1OC(=O)[C@H](C)[C@@H](O[C@H]2C[C@@](C)(OC)[C@@H](O)[C@H](C)O2)[C@H](C)[C@@H](O[C@@H]2O[C@H](C)C[C@H](N(C)C)[C@H]2O)[C@](C)(O)C[C@@H](C)CN(C)[C@H](C)[C@@H](O)[C@]1(C)O` [azithromycin]: the log came to 0.245.

With `CN[C@H]1CC[C@@H](c2ccc(Cl)c(Cl)c2)c2ccccc21` [sertraline hydrochloride], the log was 0.0308.

With `Nc1ccc(S(=O)(=O)Nc2nccs2)cc1` [sulfathiazole], the log was -0.0356.

As to `COC(=O)C(O)c1ccccc1` (stereo not given) [mandelic acid, methyl ester], the log is -0.138.

On to `O=C1c2ccccc2C(=O)c2c(O)c(O)cc(O)c21` [purpurin], for which the log turned out to be 0.098.

As for `Cc1ccc(-c2cc(C(F)(F)F)nn2-c2ccc(S(N)(=O)=O)cc2)cc1` [celecoxib], the log was 0.255.

Regarding `CC(C)[N+]1(C)[C@@H]2CC[C@H]1C[C@@H](OC(=O)C(CO)c1ccccc1)C2` (stereo not given in full) [ipratropium bromide], the log is -0.101.

Consider `CCOC(=O)Nc1nc2ccccc2[nH]1` [lobendazole], for which the log worked out at 0.0647.

For the compound `COc1ccc(-c2oc3cc(OC)c(OC)c(OC)c3c(=O)c2OC)cc1OC` [hexamethylquercetagetin], the log turned out to be 0.0188.

Regarding `NC[C@H]1O[C@H](O[C@H]2[C@H](O)[C@@H](O[C@H]3O[C@H](CO)[C@@H](O)[C@H](N)[C@H]3O)[C@H](N)C[C@@H]2N)[C@H](N)C[C@@H]1O` [tobramycin], the log stood at 0.139.

Consider `O=C(O)c1ccc[n+]([O-])c1` [oxiniacic acid], for which the log is 0.0472.

In the case of `CC(C)(CO)[C@@H](O)C(=O)NCCC(=O)O` [pantothenic acid(d) na salt], the log worked out at 0.0161.

For the compound `Cc1cc(C(C)(C)C)cc(C)c1CC1=NCCN1` [xylometazoline hydrochloride], the log was -0.172.
